{"source": "patent US9381148B2", "about": "“Composition comprising particulate zinc material with a high relative zinc lability” (priority 2003, dated 2016)", "origin": "cited, not measured here", "details": "cited from earlier work", "note": "For at least one compound, name, drawing or mass did not settle the structure.", "data": [{"smiles": "Cc1cc(C2(c3cc(C)c(O)c(CN(CC(=O)O)CC(=O)O)c3)OS(=O)(=O)c3ccccc32)cc(CN(CC(=O)O)CC(=O)O)c1O", "note": "[Xylenol Orange]", "values": [{"measurement": "Log Zn Binding Constant", "value": 10.3}]}]}
